# Results deposited as PubChem BioAssay AID1259308 (NCATS, 2017)
# Aim: 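Candidate targets for better recombinant protein yield in mammalian cells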 (primary screen)
# System: human HEK293 embryonic kidney cells stably expressing firefly luciferase (HEK-CMV-Luc2-Hygro)
# Reagents: single siRNA against human genes, 0.8 pmol siRNA per well
# Duration: 72 h
# Measured: 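Luciferase light (ONE-Glo) measured on one replicate plate set and viability (CellTiter-Glo) on the other, scaled to a negative control siRNA, with robust z-scores and luciferase per cell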
# Scale: total luciferase, z-score and total luciferase, % of control: higher = more reporter protein produced; luciferase per cell, z-score: higher = more reporter output per viable cell
# Rule for the call: 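An siRNA counts as active if its total luciferase robust z-score exceeds 3; genes with two or more such siRNAs out of three were retested with fresh siRNAs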
# Meaning of the calls: active = raised luciferase; inactive = no rise
# Here is an unselected part of about 59,000 reagents. Of all reagents, about 1,510 (2.6%) got an active call. 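Calls use total luciferase alone and ignore viability, so some active siRNAs may act by altering cell number.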 Entries without a mark were called inactive. The numbers tell different reagents against one gene apart. Further read-outs or replicates are left out here.
target gene,siRNA no.,"total luciferase, z-score","total luciferase, % of control","luciferase per cell, z-score"
RIPPLY3 (ripply transcriptional repressor 3),1,0.24,86.7,2.17
RIPPLY3 (ripply transcriptional repressor 3),2,-1.26,56.8,-1.18
RIPPLY3 (ripply transcriptional repressor 3),3,-0.197,78,-0.577
LIMCH1 (LIM and calponin homology domains 1),1,-1.02,61.5,-1.31
LIMCH1 (LIM and calponin homology domains 1),2,1.01,102,1.17
LIMCH1 (LIM and calponin homology domains 1),3,-1.27,56.6,-1.79
AHDC1 (AT-hook DNA binding motif containing 1),1,0.867,99.1,0.641
AHDC1 (AT-hook DNA binding motif containing 1),2,-1.46,52.9,-0.658
AHDC1 (AT-hook DNA binding motif containing 1),3,0.842,98.6,1.58
SLC25A4,1,-1.1,60.1,-0.957
SLC25A4,2,0.155,85,0.65
SLC25A4,3,-0.174,78.4,-0.00726
"INCA1 (inhibitor of CDK, cyclin A1 interacting protein 1)",1,-0.381,74.3,1.46
"INCA1 (inhibitor of CDK, cyclin A1 interacting protein 1)",2,4.29 (active),167,3.1
"INCA1 (inhibitor of CDK, cyclin A1 interacting protein 1)",3,0.909,100,0.41
MYO3A (myosin IIIA),1,-1.94,43.3,-1.67
MYO3A (myosin IIIA),2,-1.9,44,-0.559
MYO3A (myosin IIIA),3,-0.0963,80,-0.69
LINC02551 (long independently transcribed non-coding RNA 2551),1,0.407,90,1.19
LINC02551 (long independently transcribed non-coding RNA 2551),2,-0.937,63.2,-0.635
LINC02551 (long independently transcribed non-coding RNA 2551),3,1.49,111,0.103
HAPSTR2 (HUWE1 associated protein modifying stress responses 2),1,0.619,94.2,-0.197
HAPSTR2 (HUWE1 associated protein modifying stress responses 2),2,0.33,88.5,0.378
HAPSTR2 (HUWE1 associated protein modifying stress responses 2),3,-0.28,76.3,-0.406
OR4C11 (olfactory receptor family 4 subfamily C member 11),1,-0.243,77.1,-0.639
OR4C11 (olfactory receptor family 4 subfamily C member 11),2,-1.1,60,-0.55
OR4C11 (olfactory receptor family 4 subfamily C member 11),3,-1.79,46.4,-1.22
FBXL4 (F-box and leucine rich repeat protein 4),1,-0.122,79.5,-1.01
FBXL4 (F-box and leucine rich repeat protein 4),2,-0.651,68.9,0.167
FBXL4 (F-box and leucine rich repeat protein 4),3,2.03,122,1.4
MAD2L1BP (MAD2L1 binding protein),1,-0.11,79.7,0.402
MAD2L1BP (MAD2L1 binding protein),2,-0.0372,81.1,0.103
MAD2L1BP (MAD2L1 binding protein),3,2.49,131,2.57
ARMC12 (armadillo repeat containing 12),1,1.1,104,0.569
ARMC12 (armadillo repeat containing 12),2,1.62,114,1.66
ARMC12 (armadillo repeat containing 12),3,4.46 (active),171,3.08

Next part, starting with the last 6 of the part before.
target gene,siRNA no.,"total luciferase, z-score","total luciferase, % of control","luciferase per cell, z-score"
MAD2L1BP (MAD2L1 binding protein),1,-0.11,79.7,0.402
MAD2L1BP (MAD2L1 binding protein),2,-0.0372,81.1,0.103
MAD2L1BP (MAD2L1 binding protein),3,2.49,131,2.57
ARMC12 (armadillo repeat containing 12),1,1.1,104,0.569
ARMC12 (armadillo repeat containing 12),2,1.62,114,1.66
ARMC12 (armadillo repeat containing 12),3,4.46 (active),171,3.08
PLCD3 (phospholipase C delta 3),1,-1.12,59.7,-0.916
PLCD3 (phospholipase C delta 3),2,-2.71,27.9,-1.95
PLCD3 (phospholipase C delta 3),3,-1.2,58.1,-0.862
RPS16P1 (ribosomal protein S16 pseudogene 1),1,-2.42,33.8,-1.18
RPS16P1 (ribosomal protein S16 pseudogene 1),2,-1.78,46.6,-1.9
RPS16P1 (ribosomal protein S16 pseudogene 1),3,-2.54,31.4,-1.94
ELP1 (elongator acetyltransferase complex subunit 1),1,-0.642,69.1,-0.894
ELP1 (elongator acetyltransferase complex subunit 1),2,1.26,107,0.326
ELP1 (elongator acetyltransferase complex subunit 1),3,0.331,88.5,-0.163
MFAP1 (microfibril associated protein 1),1,0.162,85.1,1.39
MFAP1 (microfibril associated protein 1),2,-0.0764,80.4,2.4
MFAP1 (microfibril associated protein 1),3,0.185,85.6,1.77
JAZF1 (JAZF zinc finger 1),1,-0.353,74.9,-0.307
JAZF1 (JAZF zinc finger 1),2,0.991,102,0.269
JAZF1 (JAZF zinc finger 1),3,-1.11,59.8,-1.27
MYPN (myopalladin),1,0.185,85.6,-0.0548
MYPN (myopalladin),2,-0.852,64.9,0.267
MYPN (myopalladin),3,-0.734,67.3,-0.193
TPSAB1 (tryptase alpha/beta 1),1,0.162,85.1,-0.562
TPSAB1 (tryptase alpha/beta 1),2,0.996,102,0.119
TPSAB1 (tryptase alpha/beta 1),3,0.292,87.7,-0.337
